From PMC10929186
Results are given in words; binding and its absence hold for the method and conditions named. In cells and extracts the contact can be indirect. Some entries that bind do so weakly or less than the wild type.

Chains of the proteins cited; added tags and fusions are not shown.
UniProt P07356: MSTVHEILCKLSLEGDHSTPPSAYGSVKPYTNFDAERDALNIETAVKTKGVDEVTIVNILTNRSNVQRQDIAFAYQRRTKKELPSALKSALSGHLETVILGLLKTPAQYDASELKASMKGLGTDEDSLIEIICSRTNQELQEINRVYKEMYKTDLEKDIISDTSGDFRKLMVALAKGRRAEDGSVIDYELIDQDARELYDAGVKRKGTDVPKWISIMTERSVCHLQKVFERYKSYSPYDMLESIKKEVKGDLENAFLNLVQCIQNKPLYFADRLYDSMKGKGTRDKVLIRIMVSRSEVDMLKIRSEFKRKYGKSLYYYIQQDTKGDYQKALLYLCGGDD

Target: Anxa2 (mouse (endogenous in primary acinar cells and 266-6 cells)) (UniProt P07356)
Assay: co-IP; endogenous proteins in lysate of isolated primary acinar cells treated with 100 nM caerulein or PBS for 6 hours; anti-Hspb1 or anti-Anxa2 antibody, Protein A/G agarose beads, Western blot

binding: binds
B1: Prdx1 (protein, UniProt P35700 1-199)
chain: MSSGNAKIGYPAPNFKATAVMPDGQFKDISLSEYKGKYVVFFFYPLDFTFVCPTEIIAFSDRADEFKKLNCQVIGASVDSHFCHLAWINTPKKQGGLGPMNIPLISDPKRTIAQDYGVLKADEGISFRGLFIIDDKGILRQITINDLPVGRSVDEIIRLVQAFQFTDKHGEVCPAGWKPGSDTIKPDVNKSKEYFSKQK
